What all share (assay type): cell-based
For one assay, the system named is HCT116 (colon). The assay is described as follows: MTT in vitro cytotoxic activity assay, HCT116. The note with it: Homo sapiens, HCT-116; HCT116 cells, exposed for 96 hours; read-out: Cytotoxicity activity IC50, HCT116 (colon). Here is the method:
(§1) Compounds 1-20 were screened for their in vitro cytotoxic activity utilizing a 3-(4,5-dimethyl-thiazol-2-yl)-2,5-diphenyltetrazolium bromide (MTT) assay against selected cancer human cell lines consisting of PC3 (prostate), HCT 116 (colon), A375 (melanoma), H1299 (lung), MIAPaCa-2 (pancreas), HL60 (leukemia), MCF7 (breast), MDA-MB-231 (breast) (T. Mosmann, J. Immunol. Meth., 1983, 65, 55-63). The cells were cultured at 37° C. in RMPI1640 medium supplemented with 10% fetal bovine serum, 50 IU/mL penicillin, and 50 μg/mL streptomycin in a 5% CO2 incubator. All cells were sub-cultured 3 times/week by trypsinisation. Viable cells were seeded and allowed to adhere for 12 h before a test drug was added in 96-well plates at an initial density of 1.0×10^5 cells/mL. Tumor cell lines were separately exposed to various concentrations of the tested compounds followed by incubation at a temperature of 37° C. during 96 hours inside a medium of fresh RMPI 1640. Cells were subsequently incubated at 37° C. using MTT at 0.5 mg/mL during 4 hours. After removal of supernatant, formazan crystals were dissolved in isopropanol and the optical density was measured at 570 nm. CX-4945 was used as a positive control.

The next assay concerns H1299 (lung). Description: MTT in vitro cytotoxic activity assay, H1299. The note with it: Homo sapiens, NCI-H1299; H1299 cells, exposed for 96 hours; read-out: Cytotoxicity activity IC50, H1299 (lung). Here is the method: as §1
In the next assay the test system is HL60 (leukemia). The assay is described as follows: MTT in vitro cytotoxic activity assay, HL60. Particulars: Homo sapiens, HL-60; HL60 cells, exposed for 96 hours; read-out: Cytotoxicity activity IC50, HL60 (leukemia). As to the method: as §1
In a further assay the test system is PC3 (prostate). The assay is described as follows: MTT in vitro cytotoxic activity assay, PC3. Particulars: Homo sapiens, PC-3; PC3 cells, exposed for 96 hours; read-out: Cytotoxicity activity IC50, PC3 (prostate). Here is the method:
as §1

The next assay deals with MDA-MB-231 (breast). The assay is described as follows: MTT in vitro cytotoxic activity assay, MDA-MB-231. The note with it: Homo sapiens; MDA-MB-231 cells, exposed for 96 hours; read-out: Cytotoxicity activity IC50, MDA-MB-231 (breast). Here is the method:
as §1

The next assay has as its system MIAPaCa-2 (pancreas). The assay is described as follows: MTT in vitro cytotoxic activity assay, MIAPaCa-2. Particulars: Homo sapiens, MIA PaCa-2; MIAPaCa-2 cells, exposed for 96 hours; read-out: Cytotoxicity activity IC50, MIAPaCa-2 (pancreas). As to the method:
as §1

The subject of a further assay is A375 (melanoma). The assay is described as follows: MTT in vitro cytotoxic activity assay, A375. The note with it: Homo sapiens, A-375; A375 cells, exposed for 96 hours; read-out: Cytotoxicity activity IC50, A375 (melanoma). Here is the method: as §1
The test system of another assay is MCF7 (breast). Description: MTT in vitro cytotoxic activity assay, MCF7. The note with it: Homo sapiens; MCF7 cells, exposed for 96 hours; read-out: Cytotoxicity activity IC50, MCF7 (breast). Here is the method:
as §1

On to `O=C(O)c1ccc2c(c1)nc(Nc1cccc(Cl)c1)c1ccncc12` [CX-4945, reference compound], for which the IC50 (in general, the midpoint of a concentration-inhibition curve) in the assay on HCT116 (colon) came to 2.3 µM; in the assay on H1299 (lung), 2.3 µM; in the assay with HL60 (leukemia) it was 3.7 µM; in the assay on PC3 (prostate) it was 2 µM; in the assay with MDA-MB-231 (breast) it was 6.2 µM; in the assay on MIAPaCa-2 (pancreas), 1 µM. Moreover, the IC50 is 4.1 µM with A375 (melanoma) and 9.1 µM in the assay on MCF7 (breast).

For the origin of these results see patent publication US11970499B1, “Pyrazolo[1,5-c]pyrimidine compounds as CK2 inhibitors” (KING FAISAL UNIVERSITY, priority 2023, dated 2024).
